# Source: the supplement of paper PMC12823440, “Inhibitors supercharge kinase turnover through native proteolytic circuits” (Nature, 2025)
# The chains behind the UniProt entries cited, without tags or fusion partners. Where a name states a change or a piece, a line headed by the entry shows the natural chain unless it says otherwise.
# UniProt P36888, whole entry: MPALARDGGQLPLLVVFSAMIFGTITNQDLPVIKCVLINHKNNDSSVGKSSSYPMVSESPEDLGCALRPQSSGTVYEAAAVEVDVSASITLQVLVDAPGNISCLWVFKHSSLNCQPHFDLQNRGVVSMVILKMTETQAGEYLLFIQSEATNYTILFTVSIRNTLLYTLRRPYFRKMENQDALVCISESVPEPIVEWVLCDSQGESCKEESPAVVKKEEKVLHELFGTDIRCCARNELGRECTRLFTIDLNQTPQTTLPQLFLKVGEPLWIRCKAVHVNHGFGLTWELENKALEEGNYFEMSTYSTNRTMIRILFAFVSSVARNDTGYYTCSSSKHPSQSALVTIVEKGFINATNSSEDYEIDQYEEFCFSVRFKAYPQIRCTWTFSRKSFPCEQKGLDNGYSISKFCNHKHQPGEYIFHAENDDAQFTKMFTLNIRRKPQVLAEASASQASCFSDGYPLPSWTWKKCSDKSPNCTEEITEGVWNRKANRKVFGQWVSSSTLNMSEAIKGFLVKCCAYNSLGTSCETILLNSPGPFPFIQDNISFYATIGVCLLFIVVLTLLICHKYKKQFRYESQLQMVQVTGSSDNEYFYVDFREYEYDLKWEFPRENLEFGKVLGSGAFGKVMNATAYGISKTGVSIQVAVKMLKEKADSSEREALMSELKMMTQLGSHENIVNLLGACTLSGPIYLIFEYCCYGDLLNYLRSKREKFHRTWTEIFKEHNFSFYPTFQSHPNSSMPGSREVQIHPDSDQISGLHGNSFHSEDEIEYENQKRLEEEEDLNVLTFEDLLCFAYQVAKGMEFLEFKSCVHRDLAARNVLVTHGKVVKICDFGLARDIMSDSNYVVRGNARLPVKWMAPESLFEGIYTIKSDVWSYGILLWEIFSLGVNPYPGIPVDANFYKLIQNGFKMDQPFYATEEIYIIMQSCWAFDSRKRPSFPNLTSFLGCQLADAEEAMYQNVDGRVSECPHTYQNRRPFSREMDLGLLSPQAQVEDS
# UniProt P06241, whole entry, looked up: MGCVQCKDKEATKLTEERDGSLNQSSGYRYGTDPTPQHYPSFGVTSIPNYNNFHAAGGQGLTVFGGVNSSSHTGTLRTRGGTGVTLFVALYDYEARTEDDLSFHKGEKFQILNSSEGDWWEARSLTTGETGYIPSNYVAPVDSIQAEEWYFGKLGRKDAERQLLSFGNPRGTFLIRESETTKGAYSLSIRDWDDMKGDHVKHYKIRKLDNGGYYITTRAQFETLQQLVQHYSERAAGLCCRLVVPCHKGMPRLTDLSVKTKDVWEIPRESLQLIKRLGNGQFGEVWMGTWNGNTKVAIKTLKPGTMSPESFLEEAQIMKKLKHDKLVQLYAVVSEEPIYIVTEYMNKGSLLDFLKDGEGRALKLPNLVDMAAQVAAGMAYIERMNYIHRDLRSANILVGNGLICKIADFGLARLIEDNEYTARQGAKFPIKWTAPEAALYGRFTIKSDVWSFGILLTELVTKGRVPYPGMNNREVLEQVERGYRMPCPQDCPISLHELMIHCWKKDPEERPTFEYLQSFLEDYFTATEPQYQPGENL
# UniProt P49840: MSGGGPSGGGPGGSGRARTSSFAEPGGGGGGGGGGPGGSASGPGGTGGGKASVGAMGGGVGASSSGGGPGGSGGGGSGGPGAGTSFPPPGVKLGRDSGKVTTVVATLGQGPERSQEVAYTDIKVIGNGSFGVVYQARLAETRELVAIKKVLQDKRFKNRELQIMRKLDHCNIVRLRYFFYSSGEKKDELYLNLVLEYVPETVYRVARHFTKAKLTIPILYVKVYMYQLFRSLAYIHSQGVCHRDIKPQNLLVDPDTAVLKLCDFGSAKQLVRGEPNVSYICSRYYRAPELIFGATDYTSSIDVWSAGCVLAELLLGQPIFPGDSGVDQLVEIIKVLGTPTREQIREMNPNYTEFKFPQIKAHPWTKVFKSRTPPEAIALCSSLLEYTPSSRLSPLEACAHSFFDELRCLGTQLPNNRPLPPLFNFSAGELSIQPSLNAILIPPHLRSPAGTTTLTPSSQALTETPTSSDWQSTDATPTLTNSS
# UniProt P14616: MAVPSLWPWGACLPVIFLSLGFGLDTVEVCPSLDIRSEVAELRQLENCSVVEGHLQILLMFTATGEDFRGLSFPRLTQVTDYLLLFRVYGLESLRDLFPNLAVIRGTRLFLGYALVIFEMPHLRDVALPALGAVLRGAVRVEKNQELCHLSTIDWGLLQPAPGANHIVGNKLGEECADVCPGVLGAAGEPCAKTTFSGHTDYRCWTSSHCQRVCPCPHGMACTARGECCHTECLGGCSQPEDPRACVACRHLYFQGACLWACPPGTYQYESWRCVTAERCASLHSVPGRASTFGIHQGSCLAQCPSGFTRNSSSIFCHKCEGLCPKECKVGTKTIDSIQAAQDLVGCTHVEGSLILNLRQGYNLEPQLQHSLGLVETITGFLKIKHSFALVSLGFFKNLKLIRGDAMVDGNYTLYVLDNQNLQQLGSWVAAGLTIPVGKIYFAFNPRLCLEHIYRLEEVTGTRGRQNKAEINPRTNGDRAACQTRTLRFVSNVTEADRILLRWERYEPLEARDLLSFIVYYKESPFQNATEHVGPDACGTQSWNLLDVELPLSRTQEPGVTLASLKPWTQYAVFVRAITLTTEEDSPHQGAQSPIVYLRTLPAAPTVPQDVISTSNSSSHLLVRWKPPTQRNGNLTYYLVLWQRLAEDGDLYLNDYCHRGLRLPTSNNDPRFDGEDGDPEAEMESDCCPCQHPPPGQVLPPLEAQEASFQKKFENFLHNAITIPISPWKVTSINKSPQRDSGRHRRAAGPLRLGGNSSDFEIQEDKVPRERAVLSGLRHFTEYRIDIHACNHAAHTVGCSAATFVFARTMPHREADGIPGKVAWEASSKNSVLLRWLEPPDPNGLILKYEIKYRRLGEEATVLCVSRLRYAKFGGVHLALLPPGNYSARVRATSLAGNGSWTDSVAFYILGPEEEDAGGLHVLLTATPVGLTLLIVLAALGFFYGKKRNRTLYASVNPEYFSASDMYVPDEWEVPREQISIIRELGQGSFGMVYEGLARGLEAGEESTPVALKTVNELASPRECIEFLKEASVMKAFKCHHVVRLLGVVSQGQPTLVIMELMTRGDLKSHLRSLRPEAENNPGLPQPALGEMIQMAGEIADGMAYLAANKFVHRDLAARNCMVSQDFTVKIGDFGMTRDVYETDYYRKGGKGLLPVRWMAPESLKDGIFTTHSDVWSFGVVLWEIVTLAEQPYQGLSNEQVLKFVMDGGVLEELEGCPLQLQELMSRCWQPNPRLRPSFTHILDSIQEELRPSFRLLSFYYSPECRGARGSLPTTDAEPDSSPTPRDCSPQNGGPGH
# UniProt Q9Y616: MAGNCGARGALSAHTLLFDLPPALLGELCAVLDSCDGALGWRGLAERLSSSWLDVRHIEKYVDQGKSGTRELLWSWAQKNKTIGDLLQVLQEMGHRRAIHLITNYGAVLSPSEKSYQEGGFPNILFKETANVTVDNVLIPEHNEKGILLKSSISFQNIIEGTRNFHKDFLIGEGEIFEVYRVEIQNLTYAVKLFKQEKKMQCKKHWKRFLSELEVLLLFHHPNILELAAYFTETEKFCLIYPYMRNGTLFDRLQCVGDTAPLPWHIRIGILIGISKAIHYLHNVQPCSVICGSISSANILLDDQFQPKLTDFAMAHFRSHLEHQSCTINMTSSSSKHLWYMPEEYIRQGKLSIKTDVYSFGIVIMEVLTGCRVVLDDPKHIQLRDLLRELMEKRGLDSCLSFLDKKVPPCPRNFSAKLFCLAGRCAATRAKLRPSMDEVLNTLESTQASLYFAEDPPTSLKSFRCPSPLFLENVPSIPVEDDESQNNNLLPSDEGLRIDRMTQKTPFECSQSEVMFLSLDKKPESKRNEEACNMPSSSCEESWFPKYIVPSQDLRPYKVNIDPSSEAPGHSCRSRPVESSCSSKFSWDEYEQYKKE
# UniProt P23458: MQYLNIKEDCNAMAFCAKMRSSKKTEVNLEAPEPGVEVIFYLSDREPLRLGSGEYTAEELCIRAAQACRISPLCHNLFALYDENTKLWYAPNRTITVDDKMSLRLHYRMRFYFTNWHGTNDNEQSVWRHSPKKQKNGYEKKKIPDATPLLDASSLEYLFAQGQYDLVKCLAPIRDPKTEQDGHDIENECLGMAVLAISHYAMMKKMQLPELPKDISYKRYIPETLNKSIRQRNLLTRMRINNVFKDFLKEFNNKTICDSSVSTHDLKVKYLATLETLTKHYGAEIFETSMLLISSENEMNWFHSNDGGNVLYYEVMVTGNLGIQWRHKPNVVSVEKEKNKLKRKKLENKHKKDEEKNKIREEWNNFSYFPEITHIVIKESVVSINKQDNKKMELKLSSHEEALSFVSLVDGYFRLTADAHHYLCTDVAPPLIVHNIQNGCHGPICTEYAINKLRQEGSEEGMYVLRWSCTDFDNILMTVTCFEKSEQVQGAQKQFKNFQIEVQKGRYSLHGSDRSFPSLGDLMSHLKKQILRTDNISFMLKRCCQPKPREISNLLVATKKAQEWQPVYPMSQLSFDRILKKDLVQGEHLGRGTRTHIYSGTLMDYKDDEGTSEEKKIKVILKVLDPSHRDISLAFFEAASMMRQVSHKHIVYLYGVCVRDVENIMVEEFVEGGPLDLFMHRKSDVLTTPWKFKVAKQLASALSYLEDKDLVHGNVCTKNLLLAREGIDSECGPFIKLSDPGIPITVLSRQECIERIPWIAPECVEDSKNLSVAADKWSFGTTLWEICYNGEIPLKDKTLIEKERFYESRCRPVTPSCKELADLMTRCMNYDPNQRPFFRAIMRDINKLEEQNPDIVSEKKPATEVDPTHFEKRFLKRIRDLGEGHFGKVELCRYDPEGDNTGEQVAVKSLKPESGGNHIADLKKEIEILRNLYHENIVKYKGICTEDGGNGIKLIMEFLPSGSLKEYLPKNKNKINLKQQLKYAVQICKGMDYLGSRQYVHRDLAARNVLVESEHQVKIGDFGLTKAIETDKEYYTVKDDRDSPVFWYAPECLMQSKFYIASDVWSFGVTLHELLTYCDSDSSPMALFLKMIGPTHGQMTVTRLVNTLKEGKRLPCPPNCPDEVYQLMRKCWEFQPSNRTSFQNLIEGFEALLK
# UniProt P53667: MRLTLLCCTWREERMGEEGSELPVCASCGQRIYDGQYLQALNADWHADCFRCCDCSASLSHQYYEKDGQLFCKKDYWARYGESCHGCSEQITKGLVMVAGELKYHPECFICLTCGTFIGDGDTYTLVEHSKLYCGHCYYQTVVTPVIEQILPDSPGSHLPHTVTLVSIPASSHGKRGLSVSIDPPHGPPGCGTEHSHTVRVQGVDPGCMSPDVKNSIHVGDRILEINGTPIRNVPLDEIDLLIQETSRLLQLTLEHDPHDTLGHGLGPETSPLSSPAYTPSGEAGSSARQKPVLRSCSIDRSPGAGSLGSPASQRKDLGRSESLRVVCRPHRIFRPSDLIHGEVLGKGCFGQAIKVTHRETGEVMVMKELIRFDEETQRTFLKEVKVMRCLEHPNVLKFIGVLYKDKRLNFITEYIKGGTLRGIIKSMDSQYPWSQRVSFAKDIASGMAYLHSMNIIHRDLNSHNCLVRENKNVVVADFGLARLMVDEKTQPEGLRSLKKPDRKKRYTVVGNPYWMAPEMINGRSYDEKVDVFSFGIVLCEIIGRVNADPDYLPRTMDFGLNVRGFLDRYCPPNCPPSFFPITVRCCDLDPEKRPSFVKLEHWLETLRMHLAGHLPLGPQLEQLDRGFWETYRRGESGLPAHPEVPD
# UniProt P53671: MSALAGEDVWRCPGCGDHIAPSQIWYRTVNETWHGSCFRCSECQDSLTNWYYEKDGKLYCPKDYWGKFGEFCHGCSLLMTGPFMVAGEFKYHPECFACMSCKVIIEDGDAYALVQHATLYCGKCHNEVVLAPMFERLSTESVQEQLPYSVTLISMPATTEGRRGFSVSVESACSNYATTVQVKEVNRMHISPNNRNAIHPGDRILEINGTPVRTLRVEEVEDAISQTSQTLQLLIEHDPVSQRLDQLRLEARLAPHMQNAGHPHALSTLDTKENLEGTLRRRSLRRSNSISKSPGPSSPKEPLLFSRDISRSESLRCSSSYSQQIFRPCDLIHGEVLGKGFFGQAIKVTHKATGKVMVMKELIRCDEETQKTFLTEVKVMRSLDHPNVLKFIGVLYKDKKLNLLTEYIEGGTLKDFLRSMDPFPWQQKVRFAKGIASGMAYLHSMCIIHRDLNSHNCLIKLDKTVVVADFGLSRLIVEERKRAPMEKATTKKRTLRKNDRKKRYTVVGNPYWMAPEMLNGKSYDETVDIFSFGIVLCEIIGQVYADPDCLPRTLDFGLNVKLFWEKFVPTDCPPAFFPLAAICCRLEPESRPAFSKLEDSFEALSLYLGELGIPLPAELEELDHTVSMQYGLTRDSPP
# Counter-ions that a name gives are not always drawn. Some of the results follow. The calls rarely recur for the same compound in another form.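 Kinases were expressed as nanoluciferase fusions in K562 cells and luminescence was read every 4 h between 2 and 18 h as percent of control, DMSO set to 100% and a positive control to 0%. A time point counts as decreased when the signal drops significantly (2 sigma). The hit call is the authors' own, does not follow from the count of time points alone, and its rule is not shown.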
# Legend:
# Assay in all cases: number of time points (of 5) at which kinase-Nluc abundance scored as decreased, DMSO-normalised (count); higher = more persistent destabilization
# Conditions in all cases: K562; 2-18 h
# FLT3 = FLT3 (UniProt P36888)
# FYN = FYN (UniProt P06241)
# GSK3A = GSK3A (UniProt P49840)
# HER2 = HER2 (UniProt P04626)
# INSRR = INSRR (UniProt P14616)
# IRAK3 = IRAK3 (UniProt Q9Y616)
# JAK1 = JAK1 (UniProt P23458)
# LCK = LCK (UniProt P06239)
# LIMK1 = LIMK1 (UniProt P53667)
# LIMK2 = LIMK2 (UniProt P53671)
SMILES,number of time points (FLT3),number of time points (FYN),number of time points (GSK3A),number of time points (HER2),number of time points (INSRR),number of time points (IRAK3),number of time points (JAK1),number of time points (LCK),number of time points (LIMK1),number of time points (LIMK2)
COc1nc(-c2ccnc(NC(=O)C3CC3)c2)sc1C(N)=O [GSK-3β inhibitor 2] (10 µM),1,0,0,0,0,0,0,0,0,0
O=C(O)c1ccc(N2N=C(Cc3ccccc3)C(=Cc3ccc(-c4ccccc4F)o3)C2=O)cc1 (10 µM),0,0,0,0,0,0,0,0,0,0
CN1CCN(CCCNc2ncc(Cl)c(-c3cc4c(C(=O)NC5CC5)cccc4s3)n2)CC1 (10 µM),0,0,0,0,0,0,0,0,0,0
CC(C)Oc1ccc(-c2cnc3c(-c4ccnc5ccccc45)cnn3c2)cc1 (10 µM),0,0,0,0,0,0,0,0,0,0
CC(=O)Nc1nc2ccc(-c3cnc(C)c(NC(=O)OC4CCCCC4)c3)cc2s1 (10 µM),0,0,0,0,0,0,0,0,0,0
COC(=O)N[C@@H](C)CNc1nccc(-c2cn(C(C)C)nc2-c2cc(Cl)cc(NS(C)(=O)=O)c2F)n1 [Encorafenib] (10 µM),0,0,0,0,0,0,0,0,0,0
C[C@H]1Cc2ccccc2N1C(=O)Cc1nc(N2CCOCC2)cc(=O)[nH]1 (2.5 µM),0,0,0,0,0,0,0,0,0,0
CC[C@H](C)[C@H](NC(=O)[C@H](CCC(=O)O)NC(=O)[C@H](CCCN=C(N)N)NC(=O)[C@H](CCCN=C(N)N)NC(=O)[C@@H](N)CCCCN)C(=O)N[C@@H](CC(C)C)C(=O)N[C@@H](CO)C(=O)N[C@@H](CCCN=C(N)N)C(=O)N[C@@H](CCCN=C(N)N)C(=O)N1CCC[C@H]1C(=O)N[C@@H](CO)C(=O)N[C@@H](Cc1ccc(O)cc1)C(=O)N[C@@H](CCCN=C(N)N)C(=O)O [CREBtide] (10 µM),0,0,0,0,0,0,0,0,0,0
CC[C@H](Nc1ncnc2[nH]cnc12)c1oc2ccccc2c(=O)c1-c1cccc(F)c1 [Tenalisib] (10 µM),0,0,0,0,0,0,0,0,0,0
CCOc1c([C@H](C)n2nc(C)c3c(N)ncnc32)cc(Cl)c(F)c1[C@@H]1CNC(=O)C1 [Parsaclisib (hydrochloride)] (10 µM),0,0,0,0,0,0,0,0,0,0
CN(CC(=O)N(Cc1ccc(C2CCCCC2)cc1)c1ccc(C(=O)O)c(O)c1)S(=O)(=O)c1c(F)c(F)c(F)c(F)c1F (2.5 µM),0,0,0,0,0,0,0,0,0,0
CC1=C(C(=O)Nc2ccc3[nH]ncc3c2)C(c2ccc(F)cc2)NC(=O)N1 (stereo not given) (10 µM),0,0,0,0,0,0,0,0,0,0
COC(=O)[C@@]1(C)CC[C@]2(C(=O)O)CC[C@]3(C)C(=CC[C@@H]4[C@@]5(C)C[C@H](O)[C@H](O[C@@H]6OC[C@@H](O[C@@H]7O[C@H](CO)[C@@H](O)[C@H](O)[C@H]7O)[C@H](O)[C@H]6O)[C@@](C)(CO)[C@@H]5CC[C@]43C)[C@@H]2C1 [Esculentoside A] (10 µM),0,0,0,0,0,0,0,0,0,0
O=c1ccoc2cc(O)ccc12 [7-Hydroxy-4H-chromen-4-one] (10 µM),0,0,0,0,0,0,0,0,0,0
O=C(O)c1cc(O)c2c(c1)[C@@H]([C@H]1c3cc(C(=O)O)cc(O)c3C(=O)c3c(O[C@@H]4O[C@H](CO)[C@@H](O)[C@H](O)[C@H]4O)cccc31)c1cccc(O[C@@H]3O[C@H](CO)[C@@H](O)[C@H](O)[C@H]3O)c1C2=O [Sennoside B] (2.5 µM),0,0,0,0,0,0,0,0,0,0
C[C@H]1[C@H](OC(=O)CCC(=O)O)O[C@@H]2O[C@@]3(C)CC[C@H]4[C@H](C)CC[C@@H]1[C@@]24OO3 [Artesunate] (2.5 µM),1,1,0,0,0,0,0,0,0,0
O=C(c1ccc(Nc2nccc(-c3cc4ccccc4s3)n2)cc1)N1CCC(N2CCCC2)CC1 (2.5 µM),0,0,0,0,0,0,0,0,0,0
Cn1cc(-c2ccc(F)c(C(F)(F)F)c2)nc1C1CCN(c2ncnc3[nH]ncc23)CC1 (10 µM),0,0,0,0,0,0,0,0,0,0

SMILES,number of time points (FLT3),number of time points (FYN),number of time points (GSK3A),number of time points (HER2),number of time points (INSRR),number of time points (IRAK3),number of time points (JAK1),number of time points (LCK),number of time points (LIMK1),number of time points (LIMK2)
COc1ccc(-n2c(C)c([N+](=O)[O-])c3ccc(O)cc32)cc1 (10 µM),0,0,0,0,0,0,0,0,0,0
N=C(N)NC(=N)NCCc1ccccc1 [Phenformin (hydrochloride)] (10 µM),0,0,0,0,0,0,0,0,0,0
CCCCCCCC/C=C\CCCCCCCC(=O)NCC(=O)O [N-Oleoyl glycine] (10 µM),0,0,0,0,0,0,0,0,0,0
CC(C)(O)[C@@H]1CC[C@](C)([C@H]2[C@@H](O)C[C@@]3(C)[C@@H]4C[C@H](O[C@@H]5O[C@H](CO)[C@@H](O)[C@H](O)[C@H]5O)[C@H]5C(C)(C)[C@@H](O[C@@H]6OC[C@@H](O)[C@H](O)[C@H]6O[C@@H]6O[C@H](CO)[C@@H](O)[C@H](O)[C@H]6O)CC[C@@]56C[C@@]46CC[C@]23C)O1 [Astragaloside VI] (10 µM),0,0,0,0,0,0,0,0,0,0
COc1ccccc1/C=C1\C(=O)Nc2ccccc21 (10 µM),0,0,0,0,0,0,0,0,0,0
COc1cc2ncnc(Nc3ccc(NC(=O)c4ccccc4)cc3)c2cc1OC [Aurora kinase inhibitor-2] (2.5 µM),0,0,0,0,0,0,0,0,0,0
Nc1ncc(-c2ccc(C(=O)N3CCNCC3)cc2)nc1-c1ccc(C(F)(F)F)cc1 (10 µM),0,0,0,0,0,0,0,0,0,0
CCN1C(=O)CNc2ncc(-c3ccc(-c4nc[nH]n4)nc3C)nc21 [CC-115 (hydrochloride)] (2.5 µM),3,3,0,3,2,3,3,0,2,2
Cc1ccc(-c2nn(C(C)(C)CNC(=O)c3ccncc3)c3ncnc(N)c23)cc1 (2.5 µM),0,0,0,0,0,0,0,0,0,0
CC1(N)CCN(c2cnc3c(-c4cccc(Cl)c4Cl)[nH]nc3n2)CC1 (2.5 µM),0,0,0,0,0,0,0,0,0,0
COc1ccc(CNc2nc(N(CCO)CCO)nc3c2ncn3C(C)C)cc1 (2.5 µM),0,0,0,0,0,0,0,0,0,0
Cc1nc(NC(=O)NCCc2nnn(CCF)n2)sc1-c1ccc(S(C)(=O)=O)c(F)c1 (10 µM),0,0,0,0,0,0,0,0,0,0
CCCCNC(=N)NC(=N)N [Buformin (hydrochloride)] (2.5 µM),0,0,0,0,0,0,0,0,0,0
COc1nc(-c2cccc3c2OCCO3)ccc1Nc1ccc(CN(C)C)cc1 [RAS inhibitor Abd-7] (10 µM),0,0,0,0,0,0,0,0,0,0
N#C/C(=C\c1ccc2oc(=O)[nH]c2c1)C(=O)c1ccc(O)c(O)c1 (10 µM),0,0,0,0,0,0,0,0,0,0
C[C@@H]1C[C@H]2O[C@@]3(O[C@@H]2C(C)(C)O)[C@H](O)[C@@]2(C)[C@@H]4CC[C@H]5C(C)(C)[C@@H](O[C@@H]6OC[C@H](O)[C@H](O)[C@H]6O)CC[C@@]56C[C@@]46CC[C@]2(C)[C@@H]13 [Cimiracemoside C] (10 µM),0,0,0,0,0,0,0,0,0,0
CCN(C)C(=O)c1ccc2c(C(=Nc3ccc(CN4CCCCC4)cc3)c3ccccc3)c(O)[nH]c2c1 (2.5 µM),0,0,0,0,0,0,0,0,0,0

# In the list so far, two contain a thiophene ring, fused or not.
SMILES,number of time points (FLT3),number of time points (FYN),number of time points (GSK3A),number of time points (HER2),number of time points (INSRR),number of time points (IRAK3),number of time points (JAK1),number of time points (LCK),number of time points (LIMK1),number of time points (LIMK2)
CN1CCN(CCCNc2ncc(Cl)c(-c3cc4c(C(=O)NC5CC5)cccc4s3)n2)CC1 (10 µM),0,0,0,0,0,0,0,0,0,0
O=C(c1ccc(Nc2nccc(-c3cc4ccccc4s3)n2)cc1)N1CCC(N2CCCC2)CC1 (2.5 µM),0,0,0,0,0,0,0,0,0,0
